From patent publication US10017451B2, “Lactic acid extraction” (PURAC BIOCHEM BV, priority 2011, dated 2018)

Key:
Format in all cases: physicochemical
[1] = Comparison of different solvents in lactic acid extraction/back extraction (Example 10); conditions: listed as substance is the extraction solvent; feed 29 wt % lactic acid, 15 wt. % magnesium chloride; forward and back extraction at 20° C.
[2] = Comparison of different salts in lactic acid extraction/back extraction with MIBK (Example 11); conditions: listed as substance is the dissolved salt, at the concentration printed in the row (15-27 wt. %), feed 29 wt % lactic acid, 20° C.
[3] = Batch forward extraction of lactic acid into MIBK and back extraction into water (Examples 1-5); conditions: feed 29 wt % lactic acid, MIBK

Structure (SMILES): CCCCC(C)=O [2-hexanone]
- [lactic acid] product [1]: 35 wt. %

Structure (SMILES): CCCCCCC(C)=O [2-octanone]
- [lactic acid] product [1]: 30 wt. %

Structure (SMILES): CC(C)OC(C)C [diisopropyl ether]
- [lactic acid] product [1]: 21 wt. %

Structure (SMILES): [Cl-].[K+] [KCl]
- [lactic acid] product [2]: 21 wt. %

Structure (SMILES): [Cl-].[Cl-].[Mg+2] [MgCl2, magnesium chloride]
- [lactic acid] product [2]: 35 wt. %

Structure (SMILES): CCCC(C)=O [2-pentanone]
- [lactic acid] product [1]: 30 wt. %

Structure (SMILES): CC(O)C(=O)O (stereo not shown) [lactic acid]
- concentration of lactic acid in aqueous phase after back extraction ([3]; 15.3 wt % magnesium chloride, forward 20° C., back 20° C.): 34.8 wt %
- concentration of lactic acid in aqueous phase after back extraction ([3]; 15.3 wt % magnesium chloride, forward 20° C., back 60° C.): 36.2 wt %
- concentration of lactic acid in aqueous phase after back extraction ([3]; 15.3 wt % magnesium chloride, forward 60° C., back 20° C.): 37.1 wt %
- concentration of lactic acid in aqueous phase after back extraction ([3]; 15.3 wt % magnesium chloride, forward 60° C., back 60° C.): 36.0 wt %
- concentration of lactic acid in aqueous phase after back extraction ([3]; no dissolved salt, forward 20° C., back 20° C., potentiometric titration): 19.4 wt %

Structure (SMILES): Cc1ccccc1 [toluene]
- [lactic acid] product [1]: 1 wt. %

Structure (SMILES): O=C1CCCCC1 [cyclo-hexanone]
- [lactic acid] product [1]: 32 wt. %

Structure (SMILES): CC(=O)c1ccccc1 [acetophenone]
- [lactic acid] product [1]: 34 wt. %

Structure (SMILES): CC(C)CCO [isoamyl alcohol]
- [lactic acid] product [1]: 23 wt. %

Structure (SMILES): O=[N+]([O-])[O-].[Na+] [NaNO3]
- [lactic acid] product [2]: 24 wt. %

Structure (SMILES): CCN(CC)C(=O)c1cccc(C)c1 [n,n-diethyl-m-toluamide]
- [lactic acid] product [1]: 27 wt. %

Structure (SMILES): N.N.O=S(=O)(O)O [(NH4)2SO4]
- [lactic acid] product [2]: 26 wt. %

Structure (SMILES): O=S(=O)([O-])[O-].[Na+].[Na+] [Na2SO4]
- [lactic acid] product [2]: 23 wt. %

Structure (SMILES): [Cl-].[Na+] [NaCl]
- [lactic acid] product [2]: 23 wt. %

Structure (SMILES): CCCCCCCCN(CCCCCCCC)CCCCCCCC [trioctylamine (TOA), trioctylamine]
- [lactic acid] product [1]: 13 wt. %

Structure (SMILES): O=P([O-])([O-])[O-].[Na+].[Na+].[Na+] [Na3PO4]
- [lactic acid] product [2]: 6.4 wt. %

Structure (SMILES): COC(C)(C)C [methyl-tertiary-butyl-ether]
- [lactic acid] product [1]: 37 wt. %

Structure (SMILES): [Ca+2].[Cl-].[Cl-] [CaCl2]
- [lactic acid] product [2]: 18 wt. %

Structure (SMILES): CCOCC [diethylether]
- [lactic acid] product [1]: 38 wt. %

Structure (SMILES): CC(=O)CC(C)C [MIBK, methyl-isobutyl-ketone]
- [lactic acid] product [1]: 35 wt. %

Structure (SMILES): CCCCCC(C)=O [2-heptanone]
- [lactic acid] product [1]: 34 wt. %

Structure (SMILES): CCCOCC [ethyl propyl ether]
- [lactic acid] product [1]: 25 wt. %
